Values from PubChem BioAssay AID652243 (Drosophila RNAi Screening Center, 2013).
The deposit covers about 24,000 reagents; below is an unselected part of those with a known target gene and a result. Of all reagents, 246 (1%) got an active call. 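Plates not normalised; calls are printed but the firefly/Renilla ratio behind them is not deposited; fold cut for lowering reported inconsistently.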 Raw values vary from plate to plate and are shown uncorrected. Unmarked entries are inactive. The numbers tell different reagents against one gene apart. No sequences are given here. Not stated in the record: the amount of reagent.

- Purpose: 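Fly regulators of androgen-dependent reporter output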 (primary screen)
- System: Drosophila S2R+ cells
- Knock-down reagent: long dsRNA against Drosophila genes
- Time to read-out: 72 h (48 h, then 24 h hormone)
- Challenge: synthetic androgen R1881 at 10 nM for 24 h
- Read-out: 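Per-well raw luminescence of the androgen-driven firefly reporter and of the Renilla control, two replicates each, without normalisation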
- Reading the numbers: firefly reporter light: higher = more light from androgen-responsive reporter; Renilla control light: higher = more constitutive control signal (cell number, transfection)
- Rule for the call: 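Hit when the log firefly-to-Renilla ratio dropped or increased by a fixed fold versus the mean of GFP or LacZ controls across duplicate plates; lowering cut given as 1.5 and as 3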
- Calls: active = hit: reporter lowered or raised; inactive = no hit

no.	gene	reagent no.	firefly reporter light, replicate 1	firefly reporter light, replicate 2	Renilla control light, replicate 1	Renilla control light, replicate 2
1	amd (GeneID 35188)	1	4.40e5	8.05e5	1.29e6	2.27e6
2	amd (GeneID 35188)	2	1.08e5	1.30e5	1.33e6	1.73e6
3	CG33723 (GeneID 3772451)	1	1.30e6	9.21e5	2.43e6	2.21e6
4	CG42618 (retired record) (GeneID 5740372)	1	7.78e5	5.39e5	1.53e6	1.88e6
5	Smg5 (GeneID 34804)	1	1.14e6	1.12e6	1.83e6	2.09e6
6	Smg5 (GeneID 34804)	2	6.04e5	5.60e5	5.86e5	7.72e5
7	CG13407 (GeneID 42599)	1	2.35e5	3.63e5	4.14e6	4.42e6
8	CG13407 (GeneID 42599)	2	8.14e5	1.04e6	1.33e6	1.42e6
9	Fkbp39 (GeneID 41860)	1	28239	29862	2.14e5	2.58e5
10	Fkbp39 (GeneID 41860)	2	3.92e5	4.00e5	5.40e5	4.79e5
11	pie (GeneID 44315)	1	8.27e5	4.41e5	2.04e6	1.31e6
12	CG8229 (GeneID 35898)	1	1.01e6	1.15e6	1.45e6	1.35e6
13	CG8229 (GeneID 35898)	2	5.29e5	3.61e5	8.57e5	7.13e5
14	Yp2 (GeneID 31938)	1	1.24e5	1.38e5	7.32e5	7.33e5
15	Yp2 (GeneID 31938)	2	5.93e5	5.54e5	1.66e6	1.13e6
16	Femcoat (GeneID 31367)	1	1.01e5	1.67e5	2.46e6	2.50e6
17	Femcoat (GeneID 31367)	2	3.64e5	3.05e5	1.14e6	1.53e6
18	CROT (GeneID 43332)	1	36011	26552	1.53e5	2.11e5
19	CROT (GeneID 43332)	2	1.15e5	96521	1.16e6	1.25e6
20	CROT (GeneID 43332)	3	2.04e5	1.78e5	3.58e5	6.79e5
21	CG2614 (GeneID 35326)	1	4.39e5	5.17e5	2.10e6	4.05e6
22	CG11674 (GeneID 32374)	1	98361	1.16e5	4.51e5	3.41e5
23	mRpL19 (GeneID 41028)	1	4.11e5	3.25e5	2.92e6	2.57e6
24	mRpL19 (GeneID 41028)	2	8.01e5	6.33e5	3.45e6	2.18e6
25	mRpL19 (GeneID 41028)	3	3.23e5	2.85e5	9.09e5	7.51e5
26	CG16762 (GeneID 38310)	1	52051	51327	8.98e5	7.75e5

6 entries already listed, arranged by “firefly reporter light, replicate 2”, lowest first:
gene	reagent no.	firefly reporter light, replicate 1	firefly reporter light, replicate 2	Renilla control light, replicate 1	Renilla control light, replicate 2
amd (GeneID 35188)	2	1.08e5	1.30e5	1.33e6	1.73e6
CG42618 (retired record) (GeneID 5740372)	1	7.78e5	5.39e5	1.53e6	1.88e6
Smg5 (GeneID 34804)	2	6.04e5	5.60e5	5.86e5	7.72e5
amd (GeneID 35188)	1	4.40e5	8.05e5	1.29e6	2.27e6
CG33723 (GeneID 3772451)	1	1.30e6	9.21e5	2.43e6	2.21e6
Smg5 (GeneID 34804)	1	1.14e6	1.12e6	1.83e6	2.09e6

Further records:
no.	gene	reagent no.	firefly reporter light, replicate 1	firefly reporter light, replicate 2	Renilla control light, replicate 1	Renilla control light, replicate 2
27	AANATL2 (GeneID 33874)	1	1.00e5	90396	1.18e6	1.16e6
28	AANATL2 (GeneID 33874)	2	1.66e5	1.41e5	2.53e5	2.33e5
29	Spt20 (GeneID 39522)	1	5.70e5	7.95e5	8.29e5	1.00e6
30	Spt20 (GeneID 39522)	2	2.55e5	3.87e5	6.88e5	5.20e5
31	CG34222 (GeneID 5740154)	1	6.13e5	5.45e5	1.98e6	1.88e6
32	lncRNA:CR31386 (GeneID 12797885)	1	7.95e5	7.88e5	1.47e6	1.27e6
33	lncRNA:CR31386 (GeneID 12797885)	2	5.18e5	3.38e5	7.93e5	7.57e5
34	CG13058 (GeneID 39806)	1	4.59e5	2.51e5	3.84e6	2.60e6
35	CG13058 (GeneID 39806)	2	5.15e5	4.10e5	2.07e6	1.67e6
36	Wnt2 (GeneID 35975)	1	2.70e5	2.43e5	4.81e5	6.52e5
37	Wnt2 (GeneID 35975)	2	4.03e5	2.19e5	2.06e6	1.26e6
38	ImpE2 (GeneID 38432)	1	8.73e5	9.22e5	1.08e6	1.52e6
39	ImpE2 (GeneID 38432)	2	4.89e5	4.98e5	1.55e6	1.66e6
40	Pde6 (GeneID 41760)	1	32419	51254	1.94e5	2.32e5
41	Pde6 (GeneID 41760)	2	1.59e5	1.24e5	2.01e6	2.16e6
42	Pde6 (GeneID 41760)	3	1.42e5	76993	1.94e6	2.25e6
43	CG7518 (GeneID 41599)	1	63450	41759	4.82e5	5.37e5
44	CG7518 (GeneID 41599)	2	8.91e5	9.93e5	1.67e6	1.47e6
45	Hsf (GeneID 37068)	1	1.06e6	7.45e5	1.21e6	1.06e6
46	Hsf (GeneID 37068)	2	2.55e5	3.14e5	4.10e5	6.30e5
47	atl (GeneID 42934)	1	87442	93811	5.36e5	5.52e5
48	atl (GeneID 42934)	2	4.17e5	3.79e5	7.25e5	6.88e5
49	ctrip (GeneID 40596)	1	50690	1.00e5	2.04e6	2.13e6
50	ctrip (GeneID 40596)	2	33548	29868	4.90e5	5.67e5
51	ctrip (GeneID 40596)	3	1.24e5	3.17e5	4.01e5	8.57e5
52	ctrip (GeneID 40596)	4	1.31e6	1.29e6	6.48e5	6.61e5
53	ctrip (GeneID 40596)	5	2.30e5	1.71e5	4.50e5	6.77e5
54	CG31776 (GeneID 33568)	1	1.22e5	1.46e5	9.00e5	1.01e6
55	Acsx1L (GeneID 42351)	1	2.09e5	1.29e5	2.66e6	1.69e6
56	Acsx1L (GeneID 42351)	2	9.20e5	1.40e6	6.27e5	1.16e6
57	Ada3 (GeneID 32787)	1	6.18e5	5.96e5	2.85e6	3.24e6
58	Ada3 (GeneID 32787)	2	7.51e5	5.83e5	1.86e6	2.07e6
